Experiment in all cases: Cell proliferation assay (Sulforhodamine B), IC50
In one experiment the test system is KPC ID95. In kind it is cell-based, C57/BL6 mice. The conditions noted are these: Mus musculus; KPC ID95, 96 hours of treatment; read-out: IC50 96 h mean ± SD. As to the method: (§1) FIG. 1. Pancreatic Cancer Cell lines features. A. Basal mRNA basal levels of EMT markers Vimentin and E-Cadherin in PDAC cell lines L3.6pl, BxPC3, COLO357, PANC28, PANC1, ASPC1 and MIAPACA2, in normal pancreatic cells HPDE cells, as well as in 2 established PDX-derived primary cells KPC ID11 and KPC ID95 were determined by qRT-PCR. […] Cells were grown for 48 h before preparation of cell lysates. Proteins were separated by SDS-PAGE and transferred to PVDF membranes using standard protocols. The membranes were probed with specific antibodies and Ponceau Red as total protein loading controls. Data represents representative results of at least three independent experiments.
(§2) Cell proliferation was measured in 96-well plates in cells untreated and treated with described drugs as single agent or in combination. […] Synergism, additivity, and antagonism were quantified after an evaluation of the Combination Index (CI), which was calculated by the Chou-Talalay equation with CalcuSyn software (Biosoft, Cambridge, UK-Chou T C. Cancer Res. 2010 Jan. 15; 70(2):440-6.), as described elsewhere (Terranova-Barberio M, J Exp Clin Cancer Res. 2017; 36(1):177); Bruzzese et al, J Cell Physiol 2011, 226(9):2378-2390). […] The DRI determined the magnitude of dose reduction allowed for each drug when given in combination, compared with the concentration of a single agent that is needed to achieve the same effect. […]

In a further experiment the test system is KPC ID11. In kind it is cell-based, C57/BL6 mice. The conditions noted are these: Mus musculus; KPC ID11, 96 hours of treatment; read-out: IC50 96 h mean ± SD. The procedure: as §1, §2
The next experiment deals with MDA-PANC28. It counts as cell-based. The conditions noted are these: Homo sapiens, MDA-Panc-28; MDA-PANC28, 96 hours of treatment; read-out: IC50 96 h mean ± SD. As to the method:
(§3) Cell proliferation was measured in 96-well plates in cells untreated and treated with described drugs as single agent or in combination. Cell proliferation was measured using a spectrophotometric dye incorporation assay (Sulforhodamine B) an the inhibitory concentration of 50% of cells (IC50) was calculated for each drug, as previously described (Di Gennaro et al Br J Cancer 2010, 103(11):1680-1691). Drugs combination studies were based on concentration-effect curves generated as a plot of the fraction of unaffected (surviving) cells versus drug concentration after 96 h of treatment. Synergism, additivity, and antagonism were quantified after an evaluation of the Combination Index (CI), which was calculated by the Chou-Talalay equation with CalcuSyn software (Biosoft, Cambridge, UK-Chou T C. Cancer Res. 2010 Jan. 15; 70(2):440-6.), as described elsewhere (Terranova-Barberio M, J Exp Clin Cancer Res. 2017; 36(1):177); Bruzzese et al, J Cell Physiol 2011, 226(9):2378-2390). […] The DRI determined the magnitude of dose reduction allowed for each drug when given in combination, compared with the concentration of a single agent that is needed to achieve the same effect. […] The formed colonies were fixed with TCA (50%) and measured using a spectrophotometric dye incorporation assay (Sulforhodamine B or crystal violet). […] 3D microtissues were maintained in the incubator and photographed by Opera Phenix microscope (Perkin Elmer) air objective magnification 5× and/or scored by Cell Titer-Glo® 3D Cell Viability Assay (Promega) by using a Multimode Reader Cytation 5 (Biotek).
(§4) Inventors first evaluated by SRB colorimetric assay the antiproliferative effect of different statins (Simvastatin-SIM, Lovostatin-LOV and Atorvastatin-ATOR) and HDAC inhibitors (Panobinostat-PAN, Vorinostat-VOR, Valproic acid-VPA and Entinostat-MS-275) on a panel of PDAC cell lines with different genetic and phenotypic features (PANC28, PANC1, ASPC1, BxPC3, MIAPACA2, L3.6pl, KPC ID11 AND KPC ID95) (Table 1).

The test system of another experiment is COLO357. In kind it is cell-based. The conditions noted are these: Homo sapiens; COLO357, 96 hours of treatment; read-out: IC50 96 h mean ± SD. The procedure:
as §3, §4

Another experiment has as its system BxPC3. In kind it is cell-based. As to conditions: Homo sapiens, BXPC-3; BxPC3, 96 hours of treatment; read-out: IC50 96 h mean ± SD. As to the method: as §3, §4

Structures are written as SMILES.

What is called IC50 is the concentration at which inhibition is half-maximal. Regarding `O=C(CCCCCCC(=O)Nc1ccccc1)NO` [VOR, Vorinostat], the IC50 worked out at 1900 ± 150 nM in the experiment on KPC ID95; 2500 ± 140 nM in the experiment with KPC ID11; 1600 ± 500 nM in the experiment with MDA-PANC28; 1000 ± 200 nM with COLO357; 1100 ± 300 nM in the experiment with BxPC3.

The values above are taken from US20250213523A1, “COMBINATION OF HDAC INHIBITORS AND STATINS FOR USE IN THE TREATMENT OF PANCREATIC CANCER” (ISTITUTO NAZIONALE TUMORI IRCCS - FONDAZIONE G. PASCALE, priority 2022, published 2025).
